# Cell number after 72 h of treatment

Source: doi:10.1371/journal.pone.0140310, primary screening data, rounded.

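Human melanoma cells were exposed to two drugs together for 72 h in 1,536-well plates and read by automated microscopy after fixing and staining. The read-out is cell count (nuclei) in % of the DMSO control; lower values mean stronger growth inhibition or killing. Concentrations were fixed for each drug; these are the higher of two levels. These are primary screening values without error estimates.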 Only some of the drugs and lines screened are listed, without regard to their results.

Compounds and concentrations:
nilotinib, 1 µM: Cc1cn(-c2cc(NC(=O)c3ccc(C)c(Nc4nccc(-c5cccnc5)n4)c3)cc(C(F)(F)F)c2)cn1
OSU-03012, 5 µM: NCC(=O)Nc1ccc(-n2nc(C(F)(F)F)cc2-c2ccc3c(ccc4ccccc43)c2)cc1
ABT-263, 2 µM: CC1(C)CCC(c2ccc(Cl)cc2)=C(CN2CCN(c3ccc(C(=O)NS(=O)(=O)c4ccc(N[C@H](CCN5CCOCC5)CSc5ccccc5)c(S(=O)(=O)C(F)(F)F)c4)cc3)CC2)C1
pioglitazone, 10 µM: CCc1ccc(CCOc2ccc(CC3SC(=O)NC3=O)cc2)nc1 (centres unmarked)
GW0742, 10 µM: Cc1cc(SCc2sc(-c3ccc(C(F)(F)F)c(F)c3)nc2C)ccc1OCC(=O)O
T0901317, 7 µM: O=S(=O)(c1ccccc1)N(CC(F)(F)F)c1ccc(C(O)(C(F)(F)F)C(F)(F)F)cc1
vismodegib, 5 µM: CS(=O)(=O)c1ccc(C(=O)Nc2ccc(Cl)c(-c3ccccn3)c2)c(Cl)c1
cisplatin, 8 µM: N.N.[Cl][Pt][Cl]

| Drugs | C32 | COLO 800 | COLO 829 | WM3619 | COLO 792 | WM451Lu |
|---|---|---|---|---|---|---|
| pioglitazone + GW0742 | 112 | 73.8 | 82.0 | 98.5 | 89.2 | 96.3 |
| pioglitazone + vismodegib | 98.1 | 76.9 | 98.8 | 108 | 81.8 | 93.9 |
| cisplatin + T0901317 | 92.9 | 101 | 66.2 | 88.3 | 90.2 | 110 |
| vismodegib + nilotinib | 108 | 177 | 123 | 98.7 | 109 | 106 |
| pioglitazone + cisplatin | 85.2 | 73.2 | 81.2 | 67.3 | 94.7 | 86.5 |
| nilotinib + ABT-263 | 80.2 | 39.0 | 114 | 72.6 | 25.2 | 72.9 |
| vismodegib + cisplatin | 125 | 84.8 | 112 | 119 | 99.8 | 108 |
| nilotinib + pioglitazone | 92.4 | 101 | 139 | 103 | 121 | 102 |
| ABT-263 + T0901317 | 72.4 | 28.3 | 56.8 | 60.3 | 9.0 | 81.9 |
| nilotinib + T0901317 | 111 | 93.5 | 118 | 86.4 | 92.7 | 104 |
| cisplatin + GW0742 | 115 | 71.2 | 91.1 | 98.6 | 110 | 93.0 |
| vismodegib + OSU-03012 | 106 | 42.7 | 60.1 | 56.5 | 54.8 | 80.9 |
| ABT-263 + cisplatin | 68.3 | 44.6 | 89.9 | 66.8 | 13.9 | 87.8 |
| pioglitazone + ABT-263 | 74.8 | 50.9 | 110 | 56.0 | 13.3 | 79.5 |
| vismodegib + ABT-263 | 82.4 | 49.0 | 99.0 | 82.7 | 12.6 | 75.3 |
| pioglitazone + OSU-03012 | 90.9 | 67.0 | 84.5 | 55.7 | 71.9 | 68.9 |
| nilotinib + GW0742 | 70.4 | 74.4 | 108 | 80.4 | 101 | 100 |
| OSU-03012 + ABT-263 | 82.4 | 47.0 | 70.9 | 15.7 | 5.6 | 80.0 |
| OSU-03012 + T0901317 | 58.0 | 32.8 | 49.4 | 0.5 | 62.1 | 52.3 |
| pioglitazone + T0901317 | 86.0 | 109 | 88.5 | 65.8 | 81.4 | 87.4 |
| OSU-03012 + GW0742 | 46.3 | 39.5 | 58.7 | 3.3 | 59.1 | 70.9 |
| OSU-03012 + cisplatin | 91.0 | 58.3 | 101 | 83.8 | 67.0 | 97.0 |
| nilotinib + OSU-03012 | 68.8 | 52.1 | 66.9 | 36.4 | 47.4 | 73.2 |
| T0901317 + vismodegib | 98.6 | 92.3 | 85.3 | 105 | 108 | 99.8 |

2 of the entries, repeated:

Drugs	C32	COLO 800	COLO 829	WM3619	COLO 792	WM451Lu
nilotinib + T0901317	111	93.5	118	86.4	92.7	104
vismodegib + cisplatin	125	84.8	112	119	99.8	108